# Experimental data from PubChem BioAssay AID2685 (National Center for Advancing Translational Sciences (NCATS), 2010).
# Among all 320,000 compounds or so, about 2,100 (0.66%) were called active. Inconclusive means that the source gave no clear call. Such entries were picked first, then a sample of the others. The call rests on the fitted dose curve; in most records, active means well fitted inhibition curve with a large enough effect in the signal ratio, with a control signal flat (not every such curve was filed as active); inconclusive means small, poorly fitted or top-dose-only effect, or effect the other way, or a change in a side signal; inactive means flat fitted curve, though single readings scatter; the % refers to the signal ratio. Where the call is inconclusive, the potency comes from a doubtful curve fit. Where a SMILES comes first, the peptide text is derived from it. The star is where a group is joined. Bz = O=C(c1ccccc1)*
# Assay: qHTS Assay for Lipid Storage Modulators in Drosophila S3 Cells
# Conditions: BODIPY lipid droplet fluorescence, 18-24 h, cells fed with added oleic acid; lipid storage change, negative = inhibition: at 46.1 µM (top of the series) unless noted
# Summary of the method: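 Drosophila S3 cells got compounds at several concentrations plus oleic acid (400 uM solution). Laser-scanning cytometry with 488 nm excitation read lipid droplets at 500-530 nm and cells at 575-640 nm. Percent activity was relative to 20 uM Triacsin C.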
# On the % scale 0 is the no-effect control and ±100 the full control effect; potency means the concentration at half of the fitted maximal effect.
SMILES,"lipid storage change, negative = inhibition",Potency
COc1cc(/C=C2\SC(=Nc3c(C)n(C)n(-c4ccccc4)c3=O)NC2=O)ccc1O,inconclusive: 5.93%,
COc1ccccc1/C=C/C(=O)NCC(=O)N/N=C(/C)c1ccc(Cl)cc1,,"inconclusive: 1.64 µM [activator, partial curve]"
CN(C(=O)CSc1nnc(C(F)(F)F)n1N)C1CCS(=O)(=O)C1 (stereo not given),inconclusive: -23.6%,
CN(C)S(=O)(=O)c1ccc(C(=O)OCCCN=C2NS(=O)(=O)c3ccccc32)cc1,,"inconclusive: 29.1 µM [falling, single point]"
O=C(CO/N=C/c1ccc(OC(F)F)cc1)NCc1ccco1,,"inconclusive: 0.184 µM [falling, full curve]"
COc1ccc(-c2nn(-c3ccccc3)cc2C(=O)O)cc1N,inconclusive: 19.7%,
O=C(CCCC(=O)NCc1ccccc1)NCc1ccccc1,,"inconclusive: 25.9 µM [falling, single point]"
COC(=O)C1=C(C(=O)OC)[C@@H]2Nc3ccccc3[C@@]23C[C@@H](C(=O)OC)N=C3N1,inconclusive: 0.421%,
CCOc1ccccc1N1CC(C(=O)Nc2ccccc2N2CCOCC2)CC1=O (stereo not given),inconclusive: 26.8%,
Cc1ccnc(NC(=O)c2ccc(Cl)c(NC(=O)c3ccccc3C)c2)c1,inconclusive: -100%,
CCCN1CCC(NC(=S)Nc2ccc(OC)c(OC)c2)CC1,inconclusive: 42.2%,
COc1ccc(CC(=O)c2ccc(OC)c(OC)c2)cc1,,"inconclusive: 8.2 µM [activator, partial curve]"
COc1ccc2c(C)nc(Nc3nc(C)c(C)c(=O)[nH]3)nc2c1,inconclusive: -14.8%,
COc1ccc(NC(=O)C2=CC(c3ccco3)=NS(=O)(=O)N2C)cc1,inactive,
OCc1cc(-c2ccccn2)no1,inconclusive: 5.54%,
Cc1ccc(S(=O)(=O)NC2CC(C)(C)NC(C)(C)C2)c(C)c1C,inconclusive: 9.37%,
CCC(=O)Oc1ccc(C(=O)Nc2ccccc2C(=O)NCC(C)C)cc1,inconclusive: 24.7%,
O=C(CN1C(=O)COc2ccccc21)NCCCN1CCc2ccccc2C1,inconclusive: -80.3%,
CC(C)=NNc1nc2sc3c(c2c(=O)[nH]1)CC(C)(C)OC3,,"inconclusive: 0.231 µM [falling, partial curve]"
COc1ccc([C@@H](NC(=O)OC(C)(C)C)C(=O)OC(C)(C)C)cc1,inconclusive: 9.19%,
Cc1ccc(C(C(=O)NCc2ccco2)N(C(=O)CNC(=O)c2cccs2)c2ccc(C)cc2C)cc1 (stereo not given),inconclusive: -36.4%,
CCCCc1c(O)nc(SCCC(=O)O)[nH]c1=O,,"inconclusive: 29.1 µM [falling, single point]"
CCOC(=O)Cc1c(C)c2c(C)[nH]nc2oc1=O,inconclusive: 38.7%,
Cc1ccccc1NC(=O)Cc1nc(COC(=O)c2cccc(C)c2O)cs1,,"inconclusive: 29.1 µM [falling, single point]"
O=C(Nc1ccc(Br)cc1)NC1CCCCCCC1,,"inconclusive: 29.1 µM [cytotoxic, single point]"

SMILES,"lipid storage change, negative = inhibition",Potency
OCCCNC(=S)Nc1ccc2nccnc2c1,inconclusive: 0.084%,
Cc1cc(C)c2nc(N3CCC(C(=O)NCCN4CCOCC4)CC3)sc2c1,,"inconclusive: 6.51 µM [activator, single point]"
N#CC1=C(N)Oc2c(oc(CO)cc2=O)C1c1cccs1 (stereo not given),,"inconclusive: 0.651 µM [falling, full curve]"
CCOC(=O)c1cc2c(s1)-c1c(C)cccc1OC2,,"inconclusive: 18.4 µM [activator, single point]"
CCN1CCN(CCNC(=O)c2ccc3c(c2)N(Cc2ccc(F)cc2)C(=O)c2ccccc2S3=O)CC1 (stereo not given),,"inconclusive: 20.6 µM [activator, partial curve]"
CC(=O)Nc1ccc(N2N=C(C)C(N=Nc3ccccc3)C2=O)cc1 (stereo not given),inconclusive: 23.7%,
CN1/C(=C\C(=O)COC(=O)CNC(=O)c2ccccc2F)C(C)(C)c2ccccc21,inconclusive: 3.58%,
O=C(c1ccco1)c1nnn(Cc2ccccc2)c1-c1ccccc1,inconclusive: 18.9%,
O=[N+]([O-])c1cc(S(=O)(=O)Nc2ccccc2)ccc1N1CCN(c2ccccc2)CC1,,"inconclusive: 29.1 µM [cytotoxic, single point]"
O=C(CSc1nc(C2CCCCC2)nc2ccccc12)NCc1ccco1,,"inconclusive: 20.6 µM [falling, single point]"
CCOc1ccccc1NC(=O)c1cccc(S(=O)(=O)N(Cc2ccccc2)c2ccccc2OC)c1,inconclusive: 8.98%,
COc1ccc(-c2noc(CNC(=O)C(C)Oc3ccccc3)n2)cc1 (stereo not given),,"inconclusive: 29.1 µM [activator, single point]"
O=C(CSc1nc2ccccc2c(=O)n1Cc1ccco1)N1CCN(c2ccccc2)CC1,inconclusive: 22.5%,
CCOC(=O)CC(=O)NC(C)(C)CCCCC(C)(C)NC(=O)CC(=O)OCC,inconclusive: -10%,
CCn1cc(C(=O)N[C@H](C(=O)NC(C)(C)CO)C(C)C)c(=O)c2cc3c(cc21)OCO3,inconclusive: 8.58%,
O=C(NNC(=O)C12CC3CC(CC(Cl)(C3)C1)C2)c1csc(N2CCOCC2)n1,inconclusive: 10.7%,
Cc1ccc(/C=N/N2CCN(c3ccccc3)CC2)cc1,inconclusive: 24%,
Cc1ccccc1OCC(O)Cn1c2ccccc2c2ccccc21 (stereo not given),inconclusive: -167%,
COc1ccc(S(=O)(=O)NCC(=O)N(CC(=O)NCc2ccccc2)Cc2ccco2)cc1,,"inconclusive: 29.1 µM [activator, single point]"
Cc1cc(C)c(Nc2ncnc(N)n2)c(C)c1,inactive,
Cc1ccn2c(CNC(C)c3cn(C)nc3C)c(C(=O)N3CCCCCC3)nc2c1 (stereo not given),inconclusive: -24.8%,
CCCC(=O)NCCc1nc2cc([N+](=O)[O-])ccc2n1C,inconclusive: -41.5%,
O=[N+]([O-])c1ccc(/C=N/n2c(COc3ccccc3)n[nH]c2=S)cc1,inconclusive: -2.55%,
O=C(O)c1ccccc1NS(=O)(=O)c1cccc(N=Nc2c(O)[nH]c(=S)[nH]c2=O)c1,inconclusive,
COc1ccc(C(C#N)CCC2OCCO2)cc1OC (stereo not given),inconclusive: 0.106%,

SMILES,"lipid storage change, negative = inhibition",Potency
COc1ccccc1OCC(=O)Nc1cc(NC(=O)COc2ccccc2OC)cc(C(=O)O)c1,inactive,
CN(Cc1cccs1)C(=O)Cc1csc(-c2ccccc2)n1,inconclusive: 6.73%,
CCC(CNc1cc(OC)cc2cccnc12)NC1CCCCC1 (stereo not given),inconclusive: -5.74%,
CC1Cc2ccccc2N1CC(=O)Nc1cccc(S(N)(=O)=O)c1 (stereo not given),inconclusive: 8.81%,
Cc1ccc(S(=O)(=O)NCCC(=O)N(C)Cc2cccs2)cc1,,"inconclusive: 1.16 µM [falling, full curve]"
CC1(C)Cc2c(sc(NC(=O)c3ccc(C(=O)c4ccccc4)cc3)c2C(N)=O)C(C)(C)N1,,"inconclusive: 32.6 µM [falling, single point]"
COc1ccc(-c2cn(-c3ccc(C)cc3)c(=O)n2CC(=O)Nc2ccc(OC)cc2OC)cc1,,"inconclusive: 6.51 µM [rising, single point]"
Cc1ccc(C(=O)N2CCN(c3ccc(Cl)cc3)CC2)cc1,,"inconclusive: 20.6 µM [activator, single point]"
CCCC(=O)Nc1cccc2c1CCCC2,inconclusive: 32.6%,
COc1ccc(C(=O)NC2CC2)cc1OC1CCN(C(C)CSC)CC1 (stereo not given),,"inconclusive: 5.8 µM [falling, single point]"
CCC1CCCCN1CCCNC(=O)C1CCC(Cn2c(=O)[nH]c3ccccc3c2=O)CC1 (stereo not given),,"inconclusive: 1.3 µM [activator, partial curve]"
Cc1nc2ccc(NC(=O)N3CCSCC3)cc2nc1C,,"inconclusive: 1.3 µM [activator, full curve, poor fit]"
O=C(Nc1ccc(Cl)cc1)Nc1ccccc1NS(=O)(=O)c1cccs1,inconclusive: -20.8%,
CCOc1ccc2[nH]c(O)c(NC(C)=O)c2c1,inconclusive: -11%,
O=C(NC(Cc1ccccc1)C(=O)NC(Cc1ccccc1)C(=O)O)c1ccccc1 (stereo not drawn) (Bz-Phe-Phe-OH; configuration not given here),inconclusive: 7.88%,
COc1ccc(N2CC(NS(=O)(=O)c3cccnc3)CC2=O)cc1OC (stereo not given),,"inconclusive: 2.31 µM [activator, partial curve]"
CC(C)(C)C(=O)Nc1ccccc1C(=O)NCCC(=O)Nc1ccccc1,,"inconclusive: 0.82 µM [falling, full curve, poor fit]"
N#Cc1nc(-c2ccccc2)oc1N1CCC(C(N)=O)CC1,inconclusive: 6.48%,
Cc1c(-c2ccccc2)oc2c(C(=O)OCC(=O)Nc3ccc(C(N)=O)cc3)cccc2c1=O,,"inconclusive: 29.1 µM [activator, single point]"
c1cc2c3c(cccc3c1)C(N1CCOCC1)=N2,inconclusive: 21.5%,
CCOc1ncccc1C(=O)OCC(=O)N1CC(=O)Nc2ccccc21,inactive,
CCCc1cc(=O)oc2cc(C)cc(OCC(=O)NCc3ccccn3)c12,,active: 11.6 µM
O=C(NCCN1CCNC1=O)C1CCC(=O)N(CCc2ccc(Cl)cc2)C1 (stereo not given),inconclusive: 14.1%,
Cc1cc(CNC(=O)c2cccc(OC3CCN(S(=O)(=O)N(C)C)CC3)c2)on1,,"inconclusive: 29.1 µM [falling, single point]"
Cc1ccccc1COC(=O)c1cc([N+](=O)[O-])ccc1N1CCOCC1,inconclusive: -32.7%,

# A second format for 3 compounds above.
SMILES | lipid storage change, negative = inhibition | Potency
CN(Cc1cccs1)C(=O)Cc1csc(-c2ccccc2)n1 | inconclusive: 6.73% | 
CC1Cc2ccccc2N1CC(=O)Nc1cccc(S(N)(=O)=O)c1 (stereo not given) | inconclusive: 8.81% | 
CCOc1ccc2[nH]c(O)c(NC(C)=O)c2c1 | inconclusive: -11% | 

# 3 structures from above, arranged by count of non-hydrogen atoms, smallest number first:
SMILES,"lipid storage change, negative = inhibition",Potency
CC1Cc2ccccc2N1CC(=O)Nc1cccc(S(N)(=O)=O)c1 (stereo not given),inconclusive: 8.81%,
CCC(=O)Oc1ccc(C(=O)Nc2ccccc2C(=O)NCC(C)C)cc1,inconclusive: 24.7%,
COc1cc(/C=C2\SC(=Nc3c(C)n(C)n(-c4ccccc4)c3=O)NC2=O)ccc1O,inconclusive: 5.93%,
